According to PubChem BioAssay AID504834 (National Center for Advancing Translational Sciences (NCATS), 2011):
Among all 320,000 compounds or so, about 22,000 (6.9%) were called active. Inconclusive means that the source gave no clear call. Such entries were picked first, then a sample of the others. The call rests on the fitted dose curve; in most records, active means well fitted inhibition curve with a large enough effect; inconclusive means small, poorly fitted or top-dose-only effect, or another doubt; inactive means no such curve, though single readings can be large or run the other way. Potencies beside an inconclusive call are fits to weak or partial responses and may not hold up.

Assay: Primary qHTS for delayed death inhibitors of the malarial parasite plastid, 96 hour incubation
Conditions: P. falciparum luciferase reporter growth; series mostly up to 28.7 µM; activity change, negative = inhibition: at the top concentration
Summary of the method: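 96 h incubation, 37 C, 5% CO2, of luciferase-reporter P. falciparum-infected RBCs (2% hematocrit, 0.05% parasitemia final) with test compounds; endpoint luminescence.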
On the % scale 0 is the no-effect control and ±100 the full control effect; potency means the concentration at half of the fitted maximal effect.

Row | Structure (SMILES) | Potency | activity change, negative = inhibition
1 | Cc1ccc(C)c(N(C(=O)c2csnn2)C(C(=O)NC2CCCCC2)c2ccncc2)c1 (stereo not drawn) | inconclusive: 1.17 µM [inhibitor, full curve, poor fit] | 
2 | CCOC(=O)c1ccc(N=Cc2c(O)n(-c3ccccc3F)c(=S)[nH]c2=O)cc1 |  | inactive: 20.5%
3 | CC12CCC(=O)N1C(C(=O)NCCN1C(=O)S/C(=C\c3ccccc3Cl)C1=O)CS2 (stereo not drawn) | inconclusive: 11.7 µM [inhibitor, single point] | 
4 | CCCCCC(=O)N/N=C(\C)c1ccccn1 | inconclusive: 3.7 µM [inhibitor, single point] | 
5 | Cc1ccccc1C(=O)OCC(=O)N(C)c1c(N)n(Cc2ccccc2)c(=O)[nH]c1=O | inconclusive: 18.5 µM [inhibitor, partial curve, poor fit] | 
6 | O=C(NN1C(=O)c2ccccc2NC1c1ccccc1OCc1ccccc1)c1ccncc1 (stereo not drawn) | inconclusive: 20.8 µM [inhibitor, partial curve, poor fit] | 
7 | CCOc1ccc2nc(Cl)c(C3CC(c4ccco4)=NN3S(C)(=O)=O)cc2c1 (stereo not drawn) | inconclusive: 4.65 µM [inhibitor, partial curve, poor fit] | 
8 | CC1CCC(NC(=O)CN2C(=O)NC3(CCCCC3C)C2=O)CC1 (stereo not drawn) |  | inactive: 8.16%
9 | COc1ccc(CN(Cc2cc3ccc(C)cc3[nH]c2=O)Cc2nnnn2C2CCCC2)cc1 | inconclusive: 0.0029 µM [inhibitor, full curve, poor fit] | 
10 | CS(=O)(=O)Nc1nc2n(n1)C(c1ccccc1)C=C(c1ccc(Br)cc1)N2 (stereo not drawn) |  | inactive: -2.52%
11 | O=C(C1CC1)N1CCc2cc(Br)cc(S(=O)(=O)NCc3ccccn3)c21 |  | inactive: 50.5%
12 | CCCc1ccc(C(=O)Cn2nc(C(=O)O)c3ccccc3c2=O)cc1 | inconclusive: 0.165 µM [inhibitor, partial curve, poor fit] | 
13 | COc1ccc(OC)c(NC(=O)c2nnn(Cc3ccccc3C)c2N)c1 | inconclusive: 1.31 µM [inhibitor, partial curve, poor fit] | 
14 | O=C(CSc1nnnn1C1CCCCC1)Nc1cccc(NC(=O)c2ccco2)c1 | inconclusive: 4.15 µM [inhibitor, single point] | 
15 | CC(C)CCNCC1OCc2ccccc2CO1 |  | inactive: 356%
16 | Cc1onc(-c2ccccc2Cl)c1C(=O)Nc1ccc(Br)cc1 | inconclusive: 4.65 µM [inhibitor, partial curve, poor fit] | 
17 | O=C(CCNC(=O)c1ccc(Br)cc1)NC1CCCCCC1 | inconclusive: 11.7 µM [inhibitor, single point] | 
18 | Cc1ccc(OCC(=O)NN=C2C3CC4CC(C3)CC2C4)cc1 | inconclusive: 18.5 µM [inhibitor, single point] | 
19 | COc1ccccc1CC(=O)Nc1cc(S(=O)(=O)N2CCOCC2)ccc1N1CCOCC1 | inconclusive: 3.29 µM [inhibitor, full curve] | 
20 | CCN(CC)S(=O)(=O)c1ccc(N2CCN(CCO)CC2)nc1 |  | inactive: 3.79%
21 | CCOc1ccccc1OCC(=O)OCC(=O)c1c(C)[nH]c2ccccc12 | inconclusive: 13.1 µM [inhibitor, partial curve, poor fit] | 
22 | CCOc1ccc(NC(=S)N=Nc2c(O)[nH]c3ccccc23)cc1 | active: 1.65 µM | 
23 | O=C(COC(=O)C1(c2ccc(Cl)cc2)CCCC1)N1CCc2ccccc21 | inconclusive: 18.5 µM [inhibitor, single point] | 

Row | Structure (SMILES) | Potency | activity change, negative = inhibition
24 | O=C(O)Cc1ccc(CCNS(=O)(=O)c2ccc(Cl)cc2)cc1 | inconclusive: 13.5 µM [inhibitor, partial curve, poor fit] | 
25 | CCN(Cc1ccncc1)C(=O)C1CCN(S(=O)(=O)c2cccs2)CC1 |  | inactive: -17.3%
26 | OCc1ccnc(Cl)c1 | inconclusive: 10.4 µM [inhibitor, single point] | 
27 | CCOC(=O)c1oc2ccccc2c1CSc1nnnn1-c1ccc(OC)cc1 | active: 11.7 µM | 
28 | COc1cc(C2NC(=O)C(C#N)=C(S)N2c2ccccc2)ccc1OC(C)C (stereo not drawn) | inconclusive: 18.5 µM [inhibitor, single point] | 
29 | Cc1ccc(-c2c[n+](CC(=O)Nc3c(C)cccc3C)c3n2CCC3)cc1 | active: 14.7 µM | 
30 | NS(=O)(=O)c1ccc(CNC(=O)/C=C/c2cccc(Cl)c2)cc1 | inconclusive: 18.5 µM [inhibitor, single point] | 
31 | CCCC(=O)Nc1ccc(NCc2ccc(C)s2)cc1 | inconclusive: 18.5 µM [inhibitor, partial curve, poor fit] | 
32 | Cc1ccc(NC(=O)CSc2nnc(Cc3csc(C)n3)o2)c(C)c1 | inconclusive: 2.94 µM [inhibitor, single point] | 
33 | CC1=C[C@@H](C)[C@@H](c2ccc(C(F)(F)F)cc2)OC1=O |  | inactive: 24.5%
34 | COC(=O)c1sc2ccccc2c1-n1cccc1C(=O)C(=O)Nc1ccc(C)cc1 |  | inactive: 45%
35 | CCN1CCN(Cc2nc3c(c(=O)n(C)c(=O)n3C)n2CCc2ccccc2)CC1 | active: 11.7 µM | 
36 | CCC1CN(C(=O)NCc2ccc(C)cc2)c2cc(C)ccc2O1 (stereo not drawn) | inconclusive: 14.7 µM [inhibitor, single point] | 
37 | O=C(NC1CCCCC1)C(c1ccco1)N(Cc1ccco1)C(=O)c1ccco1 (stereo not drawn) |  | inactive: 14%
38 | Cc1ccc(NC(=O)c2oc3ccccc3c2NC(=O)C2CCCO2)cc1C (stereo not drawn) | inconclusive: 13.1 µM [inhibitor, partial curve, poor fit] | 
39 | COc1cc(O)c(C(CCN2CCN(c3ccccc3)CC2)c2ccc3c(c2)OCO3)c(OC)c1 (stereo not drawn) | active: 0.329 µM | 
40 | Cc1cccc(-c2nc(C)cc(=O)[nH]2)c1 |  | inactive: 42.6%
41 | Cc1cc(NC(=O)CCC(=O)N(Cc2ccco2)C2(C(=O)NC3CCCC3)CCC(C)CC2)no1 (stereo not drawn) | inconclusive: 10.4 µM [inhibitor, partial curve] | 
42 | COc1ccc(NCC(=O)Nc2cc(S(=O)(=O)N3CCOCC3)ccc2N2CCOCC2)c(OC)c1 | inconclusive: 4.65 µM [inhibitor, partial curve] | 
43 | Cc1[nH]ncc1N=Cc1ccc([N+](=O)[O-])cc1 | inconclusive: 18.5 µM [inhibitor, single point] | 
44 | C#CCOC(=O)CN1C(=O)c2cccc3cccc(c23)C1=O | inconclusive: 9.28 µM [inhibitor, partial curve, poor fit] | 
45 | O=C(Cn1nc(C(F)(F)F)c2c1CCCC2)NCCN1CCOCC1 | active: 14.7 µM | 
46 | COc1cccc(C2CC(c3ccccc3)Nc3ncnn32)c1 (stereo not drawn) | inconclusive: 10.4 µM [inhibitor, single point] | 

Row | Structure (SMILES) | Potency | activity change, negative = inhibition
47 | O=c1c2ccsc2ncn1Cc1ccccc1F | inconclusive: 2.33 µM [inhibitor, full curve, poor fit] | 
48 | CCCn1nnnc1NC(=O)c1ccc(C)cc1Cl | inconclusive: 0.0657 µM [inhibitor, full curve, poor fit] | 
49 | Cc1sc2nc[nH]c(=S)c2c1-c1ccccc1 | inconclusive: 18.5 µM [inhibitor, single point] | 
50 | C#CCNC(=O)C1=C[C@H](c2csc3ccccc23)C[C@H](OCCCCO)O1 | inconclusive: 7.38 µM [inhibitor, partial curve, poor fit] | 
51 | Cc1nnc2sc(SCc3ccccc3)nn2c1=O | inconclusive: 1.17 µM [inhibitor, full curve] | 
52 | Cc1ccc(/C=N/NC(=O)Cc2ccc(Cl)cc2)s1 | inconclusive: 18.5 µM [inhibitor, single point] | 
53 | Cc1ccc(N2CC(C(=O)Nc3nnc(SCc4cccnc4)s3)CC2=O)cc1 (stereo not drawn) |  | inactive: -0.236%
54 | CC(C)N(C(=O)NC(=O)NCC1CCCO1)S(C)(=O)=O (stereo not drawn) | inconclusive: 6.57 µM [inhibitor, partial curve, poor fit] | 
55 | Cc1nn(Cc2ccc(Cl)cc2)c(C)c1NC(=O)c1c(-c2ccccc2)noc1C | inconclusive: 1.04 µM [inhibitor, partial curve, poor fit] | 
56 | O=C(Nc1nc(-c2ccccc2)cs1)C1CCCO1 (stereo not drawn) | inconclusive: 18.5 µM [inhibitor, single point] | 
57 | COc1ccc(-n2nc(C(=O)N3CCC(N4CCCCC4)CC3)c3c4ccccc4n(C)c3c2=O)cc1 | inconclusive: 18.5 µM [inhibitor, single point] | 
58 | COC(=O)c1cc(C(=O)N2CCOCC2)cc([N+](=O)[O-])c1 | inconclusive: 2.08 µM [inhibitor, partial curve, poor fit] | 
59 | CCOC(=O)COc1ncn(-c2ccccc2)n1 | inconclusive: 13.1 µM [inhibitor, partial curve] | 
60 | COc1ccc(C(=O)C2CCCN(C(=O)c3c4c(nn3C)CCCC4)C2)cc1F (stereo not drawn) | inconclusive: 10.4 µM [inhibitor, single point] | 
61 | Cc1cccc2c1N(CCCOc1ccccc1)C(=O)C2=O |  | inactive: -22.4%
62 | CC(=O)c1ccc(NC(=S)NC(=O)/C=C/c2ccco2)cc1 |  | inactive: -24.6%
63 | CN(C)Cc1c(C(=O)N/N=C/C2CC=CCC2)nnn1-c1nonc1N (stereo not drawn) | inconclusive: 1.17 µM [inhibitor, full curve, poor fit] | 
64 | c1ccc(CCNc2ncnc3nc[nH]c23)cc1 |  | inactive: 42.3%
65 | CCOc1ccc(NC(=O)CN(C)C(=O)c2cc(C3CC3)nn2-c2ccccc2)cc1OCC |  | inactive: -11%
66 | Cc1cc(C)cc(N2CC(C(=O)OCC(=O)Nc3cc(C)on3)CC2=O)c1 (stereo not drawn) | inconclusive: 11.7 µM [inhibitor, partial curve] | 
67 | O=C(NCC1CCCN(Cc2ccc3nonc3c2)C1)c1cccc(C(F)(F)F)c1 (stereo not drawn) | inconclusive: 18.5 µM [inhibitor, single point] | 
68 | O=C1N(CCCN2C(=O)C3(OCCO3)c3ccccc32)c2ccccc2C12OCCO2 | active: 8.28 µM | 

An excerpt of these results, field by field.
COc1ccc(-n2nc(C(=O)N3CCC(N4CCCCC4)CC3)c3c4ccccc4n(C)c3c2=O)cc1
  Potency: inconclusive: 18.5 µM [inhibitor, single point]
COC(=O)c1cc(C(=O)N2CCOCC2)cc([N+](=O)[O-])c1
  Potency: inconclusive: 2.08 µM [inhibitor, partial curve, poor fit]
CCOC(=O)COc1ncn(-c2ccccc2)n1
  Potency: inconclusive: 13.1 µM [inhibitor, partial curve]
COc1ccc(C(=O)C2CCCN(C(=O)c3c4c(nn3C)CCCC4)C2)cc1F (stereo not drawn)
  Potency: inconclusive: 10.4 µM [inhibitor, single point]
